According to publication PMC12866826:
These are yes or no findings as the source states them, for the method shown. Binding seen in cells or lysates may run through a third protein. Some entries that bind do so weakly or less than the wild type.

B1: death receptor 5 (DR5), mouse (receptor, UniProt Q9QZM4 53-381)
chain: NPAHNRPAGLQRPEESPSRGPCLAGQYLSEGNCKPCREGIDYTSHSNHSLDSCILCTVCKEDKVVETRCNITTNTVCRCKPGTFEDKDSPEICQSCSNCTDGEEELTSCTPRENRKCVSKTAWASWHKLGLWIGLLVPVVLLIGALLVWKTGAWRQWLLCIKRGCERDPESANSVHSSLLDRQTSSTTNDSNHNTEPGKTQKTGKKLLVPVNGNDSADDLKFIFEYCSDIVPFDSWNRLMRQLGLTDNQIQMVKAETLVTREALYQMLLKWRHQTGRSASINHLLDALEAVEERDAMEKIEDYAVKSGRFTYQNAAAQPETGPGGSQCV
B2: TATA-box binding protein (TBP), mouse (protein, UniProt P29037 1-316)
chain: MDQNNSLPPYAQGLASPQGAMTPGIPIFSPMMPYGTGLTPQPIQNTNSLSILEEQQRQQQQQQQQQQQQQAVATAAASVQQSTSQQPTQGASGQTPQLFHSQTLTTAPLPGTTPLYPSPMTPMTPITPATPASESSGIVPQLQNIVSTVNLGCKLDLKTIALRARNAEYNPKRFAAVIMRIREPRTTALIFSSGKMVCTGAKSEEQSRLAARKYARVVQKLGFPAKFLDFKIQNMVGSCDVKFPIRLEGLVLTHQQFSSYEPELFPGLIYRMIKPRIVLLIFVSGKVVLTGAKVRAEIYEAFENIYPILKGFRKTT

Tests used:
[1] = target: T1, TATA-box binding protein (TBP), mouse (mouse (endogenous in colonic crypt cells)) (UniProt P29037); test: co-IP; reciprocal; mouse colonic crypt cell lysates immunoprecipitated with anti-DR5, anti-TBP or anti-IgG, protein A/G beads, detected by western blot
T1 sequence: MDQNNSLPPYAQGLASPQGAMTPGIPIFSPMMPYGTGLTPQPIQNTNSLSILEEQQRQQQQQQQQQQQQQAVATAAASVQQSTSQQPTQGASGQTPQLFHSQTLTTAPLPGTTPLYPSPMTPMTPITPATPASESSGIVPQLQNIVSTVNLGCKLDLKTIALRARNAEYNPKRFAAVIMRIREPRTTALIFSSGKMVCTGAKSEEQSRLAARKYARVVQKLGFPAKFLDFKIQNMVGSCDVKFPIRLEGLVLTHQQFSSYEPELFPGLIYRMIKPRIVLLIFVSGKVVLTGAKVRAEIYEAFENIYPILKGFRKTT

[2] = target: death receptor 5 (DR5), mouse (mouse (endogenous in colonic crypt cells)) (UniProt Q9QZM4); test: as above

Binder | binding [1] | binding [2]
B1 | binds | –
B2 | – | binds
